Reference: US7381728B2, “Piperazine derivatives useful for the treatment of gastrointestinal disorders” (Glaxo Group Limited, priority 2004, dated 2008)
Some entries share one result that the patent states for a list of compounds.

Amino acid sequences for entries named in this document (tags omitted).
UniProt Q92847, whole entry: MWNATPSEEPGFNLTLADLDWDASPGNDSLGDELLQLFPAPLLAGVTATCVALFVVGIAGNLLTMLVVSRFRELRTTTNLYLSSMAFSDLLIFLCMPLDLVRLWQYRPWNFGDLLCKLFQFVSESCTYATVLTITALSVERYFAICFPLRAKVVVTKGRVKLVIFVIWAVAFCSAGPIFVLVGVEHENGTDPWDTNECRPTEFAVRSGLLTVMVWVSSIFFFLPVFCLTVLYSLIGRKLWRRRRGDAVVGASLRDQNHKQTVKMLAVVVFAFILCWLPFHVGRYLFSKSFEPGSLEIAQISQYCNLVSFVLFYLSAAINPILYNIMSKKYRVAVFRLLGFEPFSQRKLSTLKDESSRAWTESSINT

Columns and labels:
[1] = target: T1, Ghrelin Receptor GHS-R (Homo sapiens, UniProt Q92847); test: GHS-R GTPγS functional agonist assay; assay type: biochemical; parameters: The open reading frame of GHS-R was transferred from pCDN into pFastBacmam vector; expressed in transfected cells; host or cells: Membranes of HEK293T cells (Lipofectamine, pCDNA3) or of HEK293F cells (BacMam co-transduction with rat Gαo); settings: membranes of HEK293 cells transiently expressing GHS-R (protocols I and II); [35S]GTPγS SPA; read-out: activity in the GHS-R GTPγS functional agonist assays
[2] = target: T1, Ghrelin Receptor GHS-R; test: GHSR Agonist BACMAM FLIPR Assay; assay type: cell-based; parameters: The open reading frame of GHS-R was transferred from pCDN into pFastBacmam vector; expressed in transfected cells; host or cells: HEK MSR II cells or U2OS cells transduced with human GHSR BacMam virus; settings: HEK MSR II or U2OS cells transduced with human GHSR BACMAM virus; Fluo 4 calcium fluorescence

## COc1ccc(N2C[C@@H](C)N[C@@H](C)C2)cc1NS(=O)(=O)c1ccc(-c2ccsc2)cc1Cl [Example 278, 2-Chloro-N-[5-(cis-3,5-dimethyl-1-piperazinyl)-2-(methyloxy)phenyl]-4-(3-thienyl)benzenesulfonamide]
[1]
  EC50: < 1000 nM
[2]
  EC50: < 1000 nM

## COc1ccc(N2C[C@@H](C)N[C@@H](C)C2)cc1NS(=O)(=O)c1ccc(-c2ccccc2)s1 [Example 197, N-[5-(cis-3,5-Dimethyl-1-piperazinyl)-2-(methyloxy)phenyl]-5-phenyl-2-thiophenesulfonamide]
[1]
  EC50: < 1000 nM
[2]
  EC50: < 1000 nM

## COc1cc(-c2cccs2)ccc1S(=O)(=O)Nc1cccc(N2C[C@@H](C)N[C@@H](C)C2)c1 [Example 286, N-[3-(cis-3,5-Dimethyl-1-piperazinyl)phenyl]-2-(methyloxy)-4-(2-thienyl)benzenesulfonamide]
[1]
  EC50: < 1000 nM
[2]
  EC50: < 1000 nM

## COc1ccc(N2C[C@@H](C)N[C@@H](C)C2)cc1NS(=O)(=O)c1ccc(-c2ccsc2)c(F)c1 [Example 291, N-[5-(cis-3,5-Dimethyl-1-piperazinyl)-2-(methyloxy)phenyl]-3-fluoro-4-(3-thienyl)benzenesulfonamide]
[1]
  EC50: < 1000 nM
[2]
  EC50: < 1000 nM

## COc1ccc(N2C[C@@H](C)N[C@@H](C)C2)cc1NS(=O)(=O)c1ccc(-c2ccsc2)cc1C [Example 287, N-[5-(cis-3,5-Dimethyl-1-piperazinyl)-2-(methyloxy)phenyl]-2-methyl-4-(3-thienyl)benzenesulfonamide]
[1]
  EC50: < 1000 nM
[2]
  EC50: < 1000 nM

## COc1ccc(NS(=O)(=O)c2ccc(-c3ccc(F)cc3)cc2)cc1N1C[C@@H](C)N[C@@H](C)C1 [Example 150, N-[3-(cis-3,5-Dimethyl-1-piperazinyl)-4-(methyloxy)phenyl]-4′-fluoro-4-biphenylsulfonamide]
[1]
  EC50: < 1000 nM
[2]
  EC50: < 1000 nM

## COc1ccc(NS(=O)(=O)c2ccc(-c3cccc(C)n3)cc2F)cc1N1C[C@@H](C)N[C@@H](C)C1 [Example 171, N-[3-(cis-3,5-Dimethyl-1-piperazinyl)-4-(methyloxy)phenyl]-2-fluoro-4-(6-methyl-2-pyridinyl)benzenesulfonamide]
[1]
  EC50: < 1000 nM
[2]
  EC50: < 1000 nM

## Cc1cc(Br)ccc1S(=O)(=O)Nc1cc(N2C[C@@H](C)N[C@@H](C)C2)ccc1F [Example 88, 4-Bromo-N-[5-(cis-3,5-dimethyl-1-piperazinyl)-2-fluorophenyl]-2-methylbenzenesulfonamide]
[1]
  EC50: < 1000 nM
[2]
  EC50: < 1000 nM

## C[C@@H]1CN(c2ccc(F)c(NS(=O)(=O)c3ccc(-c4cccs4)cc3Cl)c2)C[C@H](C)N1 [Example 231, 2-Chloro-N-[5-(cis-3,5-dimethyl-1-piperazinyl)-2-fluorophenyl]-4-(2-thienyl)benzenesulfonamide]
[1]
  EC50: < 1000 nM
[2]
  EC50: < 1000 nM

## COc1cc(F)c(N2C[C@@H](C)N[C@@H](C)C2)cc1NS(=O)(=O)c1ccc(-c2ccc(Cl)s2)cc1 [Example 98, 4-(5-Chloro-2-thienyl)-N-[5-(cis-3,5-dimethyl-1-piperazinyl)-4-fluoro-2-(methyloxy)phenyl]benzenesulfonamide]
[1]
  EC50: < 1000 nM
[2]
  EC50: < 1000 nM

## COc1ccc(N2C[C@@H](C)N[C@@H](C)C2)cc1NS(=O)(=O)c1ccc(-c2ccc(C)o2)cc1Cl [Example 306, 2-Chloro-N-[5-(cis-3,5-dimethyl-1-piperazinyl)-2-(methyloxy)phenyl]-4-(5-methyl-2-furanyl)benzenesulfonamide]
[1]
  EC50: < 1000 nM
[2]
  EC50: < 1000 nM

## COc1ccc(N2C[C@@H](C)N[C@@H](C)C2)cc1NS(=O)(=O)c1ccc(-c2ccco2)c2nonc12 [Example 305, N-[5-(cis-3,5-Dimethyl-1-piperazinyl)-2-(methyloxy)phenyl]-7-(2-furanyl)-2,1,3-benzoxadiazole-4-sulfonamide]
[1]
  EC50: < 1000 nM
[2]
  EC50: < 1000 nM

## COc1ccc(NS(=O)(=O)c2ccc(-c3cccc(C)n3)cc2)cc1N1C[C@@H](C)N[C@@H](C)C1 [Example 128, N-[3-(cis-3,5-Dimethyl-1-piperazinyl)-4-(methyloxy)phenyl]-4-(6-methyl-2-pyridinyl)benzenesulfonamide]
[1]
  EC50: < 1000 nM
[2]
  EC50: < 1000 nM

## COc1ccc(N2C[C@@H](C)N[C@@H](C)C2)cc1NS(=O)(=O)c1ccc(Oc2cccc(Cl)c2C#N)cc1 [Example 14, 4-[(3-Chloro-2-cyanophenyl)oxy]-N-[5-(cis-3,5-dimethyl-1-piperazinyl)-2-(methyloxy)phenyl]benzenesulfonamide]
[1]
  EC50: < 1000 nM
[2]
  EC50: < 1000 nM

## COc1ccc(NS(=O)(=O)c2ccc(-c3ccccc3F)s2)cc1N1C[C@@H](C)N[C@@H](C)C1 [Example 222, N-[3-(cis-3,5-Dimethyl-1-piperazinyl)-4-(methyloxy)phenyl]-5-(2-fluorophenyl)-2-thiophenesulfonamide]
[1]
  EC50: < 1000 nM
[2]
  EC50: < 1000 nM

## COc1ccc(N2C[C@@H](C)N[C@@H](C)C2)cc1NS(=O)(=O)c1ccc(-c2ccc(Cl)s2)cc1 [Example 95, 4-(5-Chloro-2-thienyl)-N-[5-(cis-3,5-dimethyl-1-piperazinyl)-2-(methyloxy)phenyl]benzenesulfonamide]
[1]
  EC50: < 1000 nM
[2]
  EC50: < 1000 nM

## COc1ccc(NS(=O)(=O)c2ccc(Br)cc2OC)cc1N1C[C@@H](C)N[C@@H](C)C1 [Example 82, 4-Bromo-N-[3-(cis-3,5-dimethyl-1-piperazinyl)-4-(methyloxy)phenyl]-2-(methyloxy)benzenesulfonamide]
[1]
  EC50: < 1000 nM
[2]
  EC50: < 1000 nM

## COc1ccc(N2C[C@@H](C)N[C@@H](C)C2)cc1NS(=O)(=O)c1ccc2ccccc2c1 [Example 31, N-[5-(cis-3,5-Dimethyl-1-piperazinyl)-2-(methyloxy)phenyl]-2-naphthalenesulfonamide]
[1]
  EC50: < 1000 nM
[2]
  EC50: < 1000 nM

## C[C@@H]1CN(c2ccc(Cl)c(NS(=O)(=O)c3ccc(-c4ccccc4F)s3)c2)C[C@H](C)N1 [Example 300, N-[2-Chloro-5-(cis-3,5-dimethyl-1-piperazinyl)phenyl]-5-(2-fluorophenyl)-2-thiophenesulfonamide]
[1]
  EC50: < 1000 nM
[2]
  EC50: < 1000 nM

## COc1ccc(N2C[C@@H](C)N[C@@H](C)C2)cc1NS(=O)(=O)c1ccc(-c2ccc(F)c(Cl)c2)cc1 [Example 187, 3′-Chloro-N-[5-(cis-3,5-dimethyl-1-piperazinyl)-2-(methyloxy)phenyl]-4′-fluoro-4-biphenylsulfonamide]
[1]
  EC50: < 1000 nM
[2]
  EC50: < 1000 nM

## COc1ccc(N2C[C@@H](C)N[C@@H](C)C2)cc1NS(=O)(=O)c1ccc(-c2ccc(Cl)s2)s1 [Example 41, 5′-Chloro-N-[5-(cis-3,5-dimethyl-1-piperazinyl)-2-(methyloxy)phenyl]-2,2′-bithiophene-5-sulfonamide]
[1]
  EC50: < 1000 nM
[2]
  EC50: < 1000 nM

## C[C@@H]1CN(c2ccc(F)c(NS(=O)(=O)c3ccc(-c4ccoc4)cc3)c2)C[C@H](C)N1 [Example 229, N-[5-(cis-3,5-Dimethyl-1-piperazinyl)-2-fluorophenyl]-4-(3-furanyl)benzenesulfonamide]
[1]
  EC50: < 1000 nM
[2]
  EC50: < 1000 nM

## COc1ccc(NS(=O)(=O)c2ccc(-c3ccc(F)c(F)c3)cc2)cc1N1C[C@@H](C)N[C@@H](C)C1 [Example 148, N-[3-(cis-3,5-Dimethyl-1-piperazinyl)-4-(methyloxy)phenyl]-3′,4′-difluoro-4-biphenylsulfonamide]
[1]
  EC50: < 1000 nM
[2]
  EC50: < 1000 nM

## COc1cc(-c2ccco2)ccc1S(=O)(=O)Nc1cccc(N2C[C@@H](C)N[C@@H](C)C2)c1 [Example 285, N-[3-(cis-3,5-Dimethyl-1-piperazinyl)phenyl]-4-(2-furanyl)-2-(methyloxy)benzenesulfonamide]
[1]
  EC50: < 1000 nM
[2]
  EC50: < 1000 nM

## COc1ccc(NS(=O)(=O)c2ccc3c(c2)OCCN3C)cc1N1C[C@@H](C)N[C@@H](C)C1 [Example 58, N-[3-(cis-3,5-Dimethyl-1-piperazinyl)-4-(methyloxy)phenyl]-4-methyl-3,4-dihydro-2H-1,4-benzoxazine-7-sulfonamide]
[1]
  EC50: < 1000 nM
[2]
  EC50: < 1000 nM

## Cc1cc(S(=O)(=O)Nc2cc(N3C[C@@H](C)N[C@@H](C)C3)ccc2F)ccc1Br [Example 261, 4-Bromo-N-[5-(cis-3,5-dimethyl-1-piperazinyl)-2-fluorophenyl]-3-methylbenzenesulfonamide]
[1]
  EC50: < 1000 nM
[2]
  EC50: < 1000 nM

## COc1ccc(NS(=O)(=O)c2ccc(-c3cccs3)c(F)c2)cc1N1C[C@@H](C)N[C@@H](C)C1 [Example 160, N-[3-(cis-3,5-Dimethyl-1-piperazinyl)-4-(methyloxy)phenyl]-3-fluoro-4-(2-thienyl)benzenesulfonamide]
[1]
  EC50: < 1000 nM
[2]
  EC50: < 1000 nM

## COc1ccc(N2C[C@@H](C)N[C@@H](C)C2)cc1NS(=O)(=O)c1csc2ccccc12 [Example 61, N-[5-(cis-3,5-Dimethyl-1-piperazinyl)-2-(methyloxy)phenyl]-1-benzothiophene-3-sulfonamide]
[1]
  EC50: < 1000 nM
[2]
  EC50: < 1000 nM

## COc1ccc(N2C[C@@H](C)N[C@@H](C)C2)cc1NS(=O)(=O)c1ccc(-c2csc(C)c2)cc1 [Example 303, N-[5-(cis-3,5-Dimethyl-1-piperazinyl)-2-(methyloxy)phenyl]-4-(5-methyl-3-thienyl)benzenesulfonamide]
[1]
  EC50: < 1000 nM
[2]
  EC50: < 1000 nM
